Results published in PubChem BioAssay AID2551 (National Center for Advancing Translational Sciences (NCATS), 2010).
Out of some 310,000 compounds screened, about 17,000 (5.5%) were called active. Inconclusive means that the source gave no clear call. Such entries were picked first, then a sample of the others. Calls follow the shape of the dose curve; as a rule, active = well fitted inhibition curve with a large enough effect; inconclusive = small, poorly fitted or top-dose-only effect, or effect the other way; inactive = no such curve, though single readings can be large or run the other way. A potency beside an inconclusive call is a rough fit, not a confirmed value.

Amino acid sequences for entries named in this document (tags omitted). A change or cut given only in a name is not applied to a line headed by its entry.
UniProt P51450: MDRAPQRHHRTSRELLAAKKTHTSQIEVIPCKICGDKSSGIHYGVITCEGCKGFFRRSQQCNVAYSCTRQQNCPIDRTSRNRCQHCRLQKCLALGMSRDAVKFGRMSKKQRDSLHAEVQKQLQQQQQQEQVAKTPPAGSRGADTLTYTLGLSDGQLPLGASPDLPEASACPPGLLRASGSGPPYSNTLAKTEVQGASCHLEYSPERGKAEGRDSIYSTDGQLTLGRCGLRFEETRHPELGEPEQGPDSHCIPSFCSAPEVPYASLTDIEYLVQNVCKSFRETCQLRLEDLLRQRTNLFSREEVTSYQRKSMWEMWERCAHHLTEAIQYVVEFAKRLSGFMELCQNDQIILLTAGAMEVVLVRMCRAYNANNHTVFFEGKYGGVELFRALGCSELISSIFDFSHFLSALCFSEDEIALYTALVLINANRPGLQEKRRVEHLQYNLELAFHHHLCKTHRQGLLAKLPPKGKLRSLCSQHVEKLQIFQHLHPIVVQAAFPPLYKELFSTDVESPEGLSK

Each compound was assayed against Nuclear receptor ROR-gamma (Mus musculus) (UniProt P51450) (assay: qHTS for inhibitors of ROR gamma transcriptional activity). Settings: Drosophila S2 Gal4-RORgamma UAS-luciferase reporter, 20 h; activity change, negative = inhibition: at 53.6 µM (top of the series).
Outline: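 A Gal4/UAS one-hybrid system in insect cells: metallothionein-promoter Gal4–ROR gamma fusion plus Photinus luciferase reporter. Copper sulfate 700 uM final, 20 hr ambient incubation, luminescent detection after 10 min with reagent.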
% is scaled to controls: 0 for no effect and ±100 for the full control effect; potency is read from the fitted curve at half-maximal effect.
Also: nearly all actives have a fitted effect of over 60% in size.

Row | Compound | Potency | activity change, negative = inhibition
1 | CCCCn1c(-c2nn(C)c(C)c2Cl)n[nH]c1=S | active: 3.16 µM | 
2 | CCN1CNC(=S)N(c2cccc(C)c2)C1 | inconclusive: 12.6 µM [inhibitor, single point] | 
3 | CCC(C)NC(=O)c1cc(-c2cccs2)nc2ccccc12 (stereo not drawn) | inactive | 
4 | CC(C)N1CCC(N2CCN(Cc3ccc(Oc4ncccn4)cc3)CC2CCO)CC1 (stereo not drawn) | inactive | 
5 | Cc1ccc(-n2[nH]c(C)c(C=Nc3ccc(S(=O)(=O)Nc4nccs4)cc3)c2=O)c(C)c1 | inactive | 
6 | Cc1ccc(C)n1-c1ccccc1N | active: 14.1 µM | 
7 | C=CCn1c(C(CCC(C)C)CC(C)(C)O)n[nH]c1=S (stereo not drawn) | inconclusive: 35.5 µM [inhibitor, single point] | 
8 | CN(C)C(=O)c1ccc(-c2nc(Nc3ccccc3)c3ccccc3n2)cc1 | inactive | 
9 | Cc1ccc(C(=O)Nc2ccccc2[N+](=O)[O-])cc1S(=O)(=O)N1CCOCC1 | inconclusive: 3.55 µM [activator, single point] | 
10 | CC(=O)O/N=C(/c1nonc1N)N1CCN(c2ccc([N+](=O)[O-])cc2Cl)CC1 | inconclusive: 22.4 µM [activator, single point] | 
11 | Nc1nc(SCC(=O)Nc2ccc(Cl)cc2C(F)(F)F)n[nH]1 | inactive | 
12 | CN(C)CCN(C(=O)c1ccc(S(=O)(=O)N(C)c2ccccc2)cc1)c1nc2cc3c(cc2s1)OCO3 | inconclusive: 0.631 µM [inhibitor, full curve, poor fit] | 
13 | CCOC(=O)c1cc2occc2n1CC(=O)NCCOC | inconclusive: 5.62 µM [inhibitor, single point] | 
14 | COc1ccc(Cl)cc1S(=O)(=O)N1CCCC1=O | inactive | 
15 | CCn1cc(C(=O)NCc2ccco2)c2cc(OC)c(OC)cc2c1=O | inconclusive: 6.31 µM [activator, single point] | 
16 | CCOC(=O)C1(CCCc2ccccc2)CCN(Cc2nccn2CC)CC1 | active: 3.98 µM | 
17 | COc1ccc(OCCSc2nnc(-c3ccccc3)n2N)cc1 | inconclusive: 15.8 µM [activator, single point] | 
18 | C#CCn1c(=NC(=O)CSC(C)=O)sc2cc(F)ccc21 | active: 2.51 µM | 
19 | CCNC(=S)Nc1cc(C)ccn1 | active: 2.51 µM | 
20 | COc1cc(NC(=O)Cn2c(=O)n(CC3CCCO3)c(=O)c3cc(OC)c(OC)cc32)cc(OC)c1 (stereo not drawn) | inactive | 
21 | CC(=O)NC(Nc1nc2c(s1)CCCC2)(C(F)(F)F)C(F)(F)F | inactive | 
22 | C=CC[n+]1c(-c2ccc(OC)cc2)csc1NNC(=O)Nc1ccccc1 | inconclusive: 22.4 µM [inhibitor, single point] | 
23 | COCc1cc(C)nc(SCC(=O)Nc2cc(C(F)(F)F)ccc2N2CCOCC2)c1C#N | inconclusive: 12.6 µM [activator, single point] | 
24 | CCN(C(=O)c1ccc(NC(=O)Cc2ccccc2)cc1)c1ccccc1 | inconclusive: 10 µM [inhibitor, partial curve] | 

Nos. 9 through 10 from above:
Row | Compound | Potency | activity change, negative = inhibition
9 | Cc1ccc(C(=O)Nc2ccccc2[N+](=O)[O-])cc1S(=O)(=O)N1CCOCC1 | inconclusive: 3.55 µM [activator, single point] | 
10 | CC(=O)O/N=C(/c1nonc1N)N1CCN(c2ccc([N+](=O)[O-])cc2Cl)CC1 | inconclusive: 22.4 µM [activator, single point] | 

More records:

Row | Compound | Potency | activity change, negative = inhibition
25 | O=C(Nc1ccccc1Cl)c1ccc(COc2ccc3c(c2)CCC3)cc1 | inactive | 
26 | S=C1NCN(Cc2ccco2)CN1c1cccc2ccccc12 | active: 5.01 µM | 
27 | CC(Sc1ccccc1)C(=O)N1CCN(S(=O)(=O)c2ccccc2F)CC1 (stereo not drawn) | inactive | 
28 | CC[C@H](C)C(=O)O[C@H]1C[C@@H](C)C=C2C=C[C@H](C)[C@H](CC[C@@H]3C[C@@H](O)CC(=O)O3)[C@H]21 | inconclusive: 7.08 µM [activator, partial curve] | 
29 | CCc1nnc(NC(=O)c2ccc(Cl)nc2)s1 | inconclusive: 25.1 µM [inhibitor, single point] | 
30 | S=c1[nH]nc(-c2ccccc2)n1/N=C/c1cccc(Cl)c1 | active: 5.62 µM | 
31 | O=C(Cc1cccs1)NCc1ccc2c(c1)OCO2 | inconclusive: 6.31 µM [activator, single point] | 
32 | COc1ccc(-c2cn[nH]c2-c2ccc(OCc3ccccc3F)cc2O)cc1OC | inconclusive: 17.8 µM [inhibitor, single point] | 
33 | O=C(Nc1cc([N+](=O)[O-])ccc1O)c1ccc2c(c1)C(=O)N(Cc1ccco1)C2=O | inconclusive: 2.51 µM [activator, single point] | 
34 | C/C(CC(=O)Nc1ccc(OCc2ccccc2)cc1)=N\NC(=O)C(=O)Nc1cccc(C)c1 | inactive | 
35 | Cc1nnc(SCC(=O)Nc2cc(C(F)(F)F)ccc2N2CCOCC2)o1 | inactive | 
36 | Cn1c(=O)c2[nH]c(-c3ccccc3)c(O)c2n(C)c1=O | inconclusive: 12.6 µM [activator, partial curve, poor fit] | 
37 | CCN(Cc1nc2ccccc2c(=O)[nH]1)Cc1nc2cc(OC)c(OC)cc2c(=O)[nH]1 | active: 1.26 µM | 
38 | CC(C)C(=O)NC(=S)N1CCc2ccccc21 | active: 8.91 µM | 
39 | COC(=O)c1c(NC(=O)CN2C(=O)NC3(CCC(C(C)(C)C)CC3)C2=O)sc2c1CCCCC2 (stereo not drawn) | inconclusive: 35.5 µM [activator, single point] | 
40 | Cc1c(C(=O)NC2CCCc3ccccc32)oc2ccc(S(=O)(=O)N3CCCC3)cc12 (stereo not drawn) | inactive | 
41 | Clc1ccc(OCCn2c(-c3ccco3)nc3ccccc32)cc1 | inconclusive: 35.5 µM [inhibitor, single point] | 
42 | CC(=O)c1cc2c(=O)c3cc(C)ccc3oc2nc1C | inactive | 
43 | O=C(CN(Cc1ccccc1Cl)C(=O)Cn1nnc(-c2cccs2)n1)NCC1CCCO1 (stereo not drawn) |  | inactive: 0.647% [at 10 µM]
44 | COc1ccccc1Nc1nc(-c2cccc([N+](=O)[O-])c2)nc2ccccc12 | inactive | 
45 | COc1cccc(-n2c(=S)sc3c(=O)n(-c4ccccc4OC)c(=S)[nH]c32)c1 | inconclusive: 15.8 µM [inhibitor, single point] | 
46 | CCOC(=O)c1c(C)nc2c(c1-c1ccccc1)C(=O)CC(C)(C)C2 | inactive | 
47 | CC(C)c1ccc(Nc2nnc(SC3CCOC3=O)s2)cc1 (stereo not drawn) | inconclusive: 31.6 µM [inhibitor, single point] | 
48 | Cc1[nH]n(-c2ccccc2)c(=O)c1N=Nc1cccc(C(=O)O)c1 | inconclusive: 1.12 µM [inhibitor, single point] | 
